EP0609518A1, “Optically active aminopyridine derivative and use thereof” (THE GREEN CROSS CORPORATION, priority 1992, dated 1994)
At least one structure is not confirmed: it was looked up by name or label, or the drawing left a doubt.

System: aorta thoracica
Assay: Suppression of aorta thoracica constriction (relaxation of KCl-contracted aorta strips)
Set-up: species or system male Wistar rat
Conditions: concentration giving 50% relaxation of rat aorta strips contracted with KCl (20 mM); complete relaxation = papaverine (10-⁴ M); cumulative addition, 37°C

## Cl.N#CN=C(Nc1ccc(N)nc1)N[C@@H]1C[C@@H]2CC[C@H]1C2 [hydrochloride of (+)-N-(6-amino-3-pyridyl)-N''-cyano-N'-[(1S] [hydrochloride of (+)-N-(6-amino-3-pyridyl)-N''-cyano-N'-[(1S,2R,4R)-2-norbornyl]guanidine]
  IC₅₀: 8.8×10⁻⁸M
